Laboratory results: patent US12448389B2, “BRM targeting compounds and associated methods of use” (Prelude Therapeutics Incorporated, priority 2020, dated 2025)
Values joined by “and” are separate entries in the source; they are usually repeats but may differ in a detail not shown here. Equal values may be shown once. The match of structure and compound is tentative.

The chains behind the UniProt entries cited, without tags or fusion partners.
UniProt P51531, whole entry: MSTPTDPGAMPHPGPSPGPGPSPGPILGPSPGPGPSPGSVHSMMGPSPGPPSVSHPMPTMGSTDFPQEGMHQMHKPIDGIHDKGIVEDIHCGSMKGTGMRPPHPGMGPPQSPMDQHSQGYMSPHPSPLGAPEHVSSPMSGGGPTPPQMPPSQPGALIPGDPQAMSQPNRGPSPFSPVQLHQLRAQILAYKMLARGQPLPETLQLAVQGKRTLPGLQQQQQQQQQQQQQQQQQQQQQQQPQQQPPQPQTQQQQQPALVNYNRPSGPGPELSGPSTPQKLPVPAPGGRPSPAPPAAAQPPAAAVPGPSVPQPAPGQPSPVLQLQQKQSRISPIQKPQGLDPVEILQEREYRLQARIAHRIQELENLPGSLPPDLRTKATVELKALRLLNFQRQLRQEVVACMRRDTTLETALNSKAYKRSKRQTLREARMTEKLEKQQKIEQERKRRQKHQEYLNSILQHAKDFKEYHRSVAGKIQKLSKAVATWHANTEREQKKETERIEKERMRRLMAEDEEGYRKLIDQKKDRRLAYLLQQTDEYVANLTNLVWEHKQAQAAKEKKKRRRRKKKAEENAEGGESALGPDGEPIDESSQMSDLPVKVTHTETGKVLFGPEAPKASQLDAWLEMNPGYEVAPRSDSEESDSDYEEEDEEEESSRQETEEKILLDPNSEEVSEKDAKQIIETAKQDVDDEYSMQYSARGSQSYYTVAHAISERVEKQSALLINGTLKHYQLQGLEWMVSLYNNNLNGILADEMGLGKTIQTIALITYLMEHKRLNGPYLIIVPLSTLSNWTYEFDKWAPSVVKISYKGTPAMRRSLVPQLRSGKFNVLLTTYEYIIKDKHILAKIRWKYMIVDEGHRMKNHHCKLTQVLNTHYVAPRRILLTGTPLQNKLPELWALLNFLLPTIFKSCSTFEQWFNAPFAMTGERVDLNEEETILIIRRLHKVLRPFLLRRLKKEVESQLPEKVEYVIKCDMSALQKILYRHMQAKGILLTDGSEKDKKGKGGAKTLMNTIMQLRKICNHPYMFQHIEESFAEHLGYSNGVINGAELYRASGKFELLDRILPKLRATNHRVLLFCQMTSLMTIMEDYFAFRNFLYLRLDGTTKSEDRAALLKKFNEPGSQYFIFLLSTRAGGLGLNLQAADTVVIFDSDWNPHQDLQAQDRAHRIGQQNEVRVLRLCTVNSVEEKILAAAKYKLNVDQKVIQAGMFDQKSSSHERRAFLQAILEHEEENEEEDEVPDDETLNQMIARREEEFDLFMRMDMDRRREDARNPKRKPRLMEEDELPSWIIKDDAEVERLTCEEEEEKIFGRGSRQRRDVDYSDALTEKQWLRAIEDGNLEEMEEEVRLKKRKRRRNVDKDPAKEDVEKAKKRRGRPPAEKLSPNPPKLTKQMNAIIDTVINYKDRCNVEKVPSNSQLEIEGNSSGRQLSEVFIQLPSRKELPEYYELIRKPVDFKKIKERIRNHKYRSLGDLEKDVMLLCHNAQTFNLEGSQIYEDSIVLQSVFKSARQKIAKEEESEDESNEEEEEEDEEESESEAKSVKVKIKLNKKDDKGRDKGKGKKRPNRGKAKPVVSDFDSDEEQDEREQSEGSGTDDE
UniProt P51532, whole entry: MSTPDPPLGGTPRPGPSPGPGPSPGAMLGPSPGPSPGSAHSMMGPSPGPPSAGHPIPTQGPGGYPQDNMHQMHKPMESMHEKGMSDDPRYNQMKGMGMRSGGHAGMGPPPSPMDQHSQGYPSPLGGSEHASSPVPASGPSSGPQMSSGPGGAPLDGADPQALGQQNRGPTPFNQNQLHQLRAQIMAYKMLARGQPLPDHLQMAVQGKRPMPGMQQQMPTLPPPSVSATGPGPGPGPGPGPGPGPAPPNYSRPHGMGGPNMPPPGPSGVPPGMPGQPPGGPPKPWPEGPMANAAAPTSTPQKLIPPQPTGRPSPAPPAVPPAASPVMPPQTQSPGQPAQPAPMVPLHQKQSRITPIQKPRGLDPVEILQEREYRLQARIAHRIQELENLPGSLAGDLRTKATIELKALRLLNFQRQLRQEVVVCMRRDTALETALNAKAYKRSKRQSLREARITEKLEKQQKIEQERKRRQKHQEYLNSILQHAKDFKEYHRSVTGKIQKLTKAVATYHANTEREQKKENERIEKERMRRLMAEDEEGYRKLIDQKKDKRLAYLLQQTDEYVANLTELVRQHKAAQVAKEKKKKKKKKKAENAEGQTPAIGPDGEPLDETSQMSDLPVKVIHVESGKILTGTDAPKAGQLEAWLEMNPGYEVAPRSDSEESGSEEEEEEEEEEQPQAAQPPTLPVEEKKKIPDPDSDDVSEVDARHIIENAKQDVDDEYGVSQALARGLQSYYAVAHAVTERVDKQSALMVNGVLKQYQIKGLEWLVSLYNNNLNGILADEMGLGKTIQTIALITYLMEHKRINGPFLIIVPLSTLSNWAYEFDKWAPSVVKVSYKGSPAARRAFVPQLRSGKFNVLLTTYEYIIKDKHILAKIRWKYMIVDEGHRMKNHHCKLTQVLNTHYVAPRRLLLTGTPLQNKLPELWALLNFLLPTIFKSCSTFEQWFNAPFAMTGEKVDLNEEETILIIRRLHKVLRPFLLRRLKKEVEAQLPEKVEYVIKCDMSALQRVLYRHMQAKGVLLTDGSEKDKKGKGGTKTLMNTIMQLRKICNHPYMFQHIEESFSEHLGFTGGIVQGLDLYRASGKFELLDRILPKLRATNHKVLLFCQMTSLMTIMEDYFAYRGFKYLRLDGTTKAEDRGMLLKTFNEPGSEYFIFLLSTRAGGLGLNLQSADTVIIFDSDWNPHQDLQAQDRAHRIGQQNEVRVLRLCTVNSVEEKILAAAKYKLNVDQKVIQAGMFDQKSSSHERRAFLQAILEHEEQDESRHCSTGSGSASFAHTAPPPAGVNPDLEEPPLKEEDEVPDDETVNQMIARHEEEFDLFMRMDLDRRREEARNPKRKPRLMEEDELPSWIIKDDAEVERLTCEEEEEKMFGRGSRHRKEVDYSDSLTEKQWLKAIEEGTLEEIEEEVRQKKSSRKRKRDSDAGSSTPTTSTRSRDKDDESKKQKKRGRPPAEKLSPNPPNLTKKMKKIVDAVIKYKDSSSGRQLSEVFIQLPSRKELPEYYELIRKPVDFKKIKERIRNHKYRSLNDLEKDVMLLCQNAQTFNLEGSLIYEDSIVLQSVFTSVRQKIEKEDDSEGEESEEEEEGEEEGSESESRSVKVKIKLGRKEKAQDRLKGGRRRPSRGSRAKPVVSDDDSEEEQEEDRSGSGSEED

Tests used:
SMARCA2-HiBiT = SMARCA2-HiBiT (Homo sapiens, UniProt P51531); test: SMARCA2 HiBiT degradation assay in HeLa cells; conditions: read-out: HeLa_HiBit-SM2 DC50, 18 hours incubation
Description: (§1) HiBiT peptide knock-in of SMARCA2 in LgBiT expressing HEK293T cells was performed by CRISPR-mediated tagging system as described Promega. The homozygous HiBiT knock-in on c-terminus SMARCA2 was confirmed by sanger sequence. SMARCA2-HiBiT knock-in Hela monoclonal cell (CS302366) and SMARCA4-HiBiT knock-in Hela monoclonal cell (CS3023226) were purchased from Promega. The heterozygous HiBiT-knock-in was confirmed by sanger sequence in both SMARCA2-HiBiT and SMARCA4-HiBiT monoclonal cells.
(§2) SMARCA2 HiBiT and SMARCA4 HiBiT Degradation Assay in HeLa Cells
(§3) Dispense 10 ul aliquot of prepared Hela-SMARCA2-HiBiT or Hela-SMARCA4-HiBiT cells (1:1 ratio of cells:Trypan Blue (#1450013, Bio-Rad)) onto cell counting slide (#145-0011, Bio-Rad) and obtain cell density and cell viability using cell counter (TC20, Bio-Rad). Remove appropriate volume of resuspended cells from culture flask to accommodate 2500 cells/well @20 μL/well. Transfer Hela-HiBiT cells to 50 mL conical (#430290, Corning). Spin down at 1000 rpm for 5 min using tabletop centrifuge (SPINCHRON 15, Beckman). […] Read plates on microplate reader (Envision 2105, PerkinElmer) using 384 well Ultra-Sensitive luminescence mode. […]

SMARCA4-HiBiT = SMARCA4-HiBiT (Homo sapiens, UniProt P51532); test: SMARCA4 HiBiT degradation assay in HeLa cells; conditions: read-out: HeLa-HiBit-SM4 DC50, 18 hours incubation
Description: as §1, §2, §3

- DC50 (SMARCA2-HiBiT): < 10 nM
- DC50 (SMARCA4-HiBiT): 10 to 100 nM and < 10 nM
SMILES: CC12CN(CC3CCN(c4ccc5c(c4)C(=O)N(C4CCC(=O)NC4=O)C5=O)CC3)CC1C2CN1CCN2c3cc(-c4ccccc4O)nnc3NC[C@H]2C1 (some centres unmarked)
